Test results from patent US6670382B2, “Hydroxyformamidine derivatives and medicines containing the same” (Taisho Pharmaceutical Co., Ltd., priority 2000, dated 2003).
At least one structure is not confirmed: it was looked up by name or label, or the drawing left a doubt.

Tested on: 20-HETE synthase derived from rat kidney microsome
Test: Inhibitory effect of 20-HETE synthase derived from rat kidney microsome
Type: biochemical
Conditions: SHR rat kidney microsome; for Inhibition (1 µM): inhibition rate of 20-HETE production, subject compound 1 μM, 3H-arachidonic acid, NADPH, 1.5 hours at 37° C., pH 7.4
Protocol: [Inhibitory Effect of 20-HETE Synthase Derived from Rat Kidney Microsome]
Regarding the compounds listed in the Table described above, their inhibitory activities on production of 20-HETE were examined.
This examination was carried out based on the method described in J. Pharmacol. Exp. Ther., Vol. 268, p. 474 (1994).
The subject compound in an amount of 1 μM was added to a 50 mM of 3-morpholinopropanesulfonic acid buffer (MOPS) (pH 7.4), containing 5 mM of magnesium chloride, and 1 mM of ethylenediaminetetraacetic acid (EDTA) disodium salt.
Subsequently, the rat kidney microsome fraction prepared from the kidney of a spontaneously hypertensive rat (male, 6 weeks of age) as an enzyme, [5,6,8,9,11,12,14,15] tritium-arachidonic acid (supplied by Amasham) as a substrate, and NADPH (supplied by Sigma) as a coenzyme were added, and were reacted for 1.5 hours at 37° C.
After the reaction was quenched by adding formic acid (supplied by Wako Pure Chemical Industries Ltd.) to the reaction solution, acetonitrile (final concentration of 50%) was added thereto, and the mixture was allowed to stand for 1.5 hours at room temperature. The amount of 20-HETE production was measured by using a high performance liquid chromatography having a detector for radioactive substances (supplied by Gilson), equipped with an ODS column (Biocyl C18, supplied by Bio-rad).
Setting an amount of 20-HETE production to 100% when no subject compound was added, the inhibition rate (%) was calculated from the amount of 20-HETE production when a subject compound was added.
In addition, setting an amount of 20-HETE production to 100% when no subject compound was added, the concentration of the subject compound at which the production of the 20-HETE was inhibited to 50% when the subject compound is added (IC50 value) was also calculated.

O/N=C/Nc1ccc(OCc2ccccn2)nc1 [Comp. 6, N-[2-(pyridin-2-ylmethoxy)pyridin-5-yl]-N′-hydroxyformamidine]
IC50 (concentration at which 20-HETE production was inhibited to 50%): 514 nM
Inhibition (1 µM): 65.0%

O/N=C/Nc1ccc(OCCc2cccc(Br)c2)nc1 [Comp. 66]
Inhibition (1 µM): 105.3%
